According to patent US20090208489A1:
No constants are given. Whether binding was seen depends on the method and setting. Some binding calls cover weakened binding; strength is not graded here. For some assays here: Sequences can lack the tags named with a protein.

Assays:
[1] = molecular target: OV064(32-282) expressed on transfected ES-2 ovarian carcinoma cells (human) (UniProt Q7Z7D3); assay: flow cytometry
[2] = molecular target: OV064(32-282) expressed on transfected ES-2 ovarian carcinoma cells (human) (UniProt Q7Z7D3); assay: flow cytometry, supernatants and purified mAb
[3] = molecular target: T1, recombinant OV064-His fusion protein (FLAG-OV064(32-257)-His, from 293 cells) (human) (UniProt Q7Z7D3); assay: ELISA screen, OV064-His
T1 sequence: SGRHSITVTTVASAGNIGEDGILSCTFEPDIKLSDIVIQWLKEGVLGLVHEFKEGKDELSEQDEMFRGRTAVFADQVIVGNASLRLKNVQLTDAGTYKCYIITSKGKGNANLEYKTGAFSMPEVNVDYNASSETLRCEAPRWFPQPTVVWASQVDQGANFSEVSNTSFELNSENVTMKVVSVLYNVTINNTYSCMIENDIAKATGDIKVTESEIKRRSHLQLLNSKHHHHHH

[4] = molecular target: OV064(32-282) expressed on transfected ES-2 ovarian carcinoma cells (human) (UniProt Q7Z7D3); assay: flow cytometry screen, ES2/OV064 cells
[5] = molecular target: T1, recombinant OV064-His fusion protein (FLAG-OV064(32-257)-His, from 293 cells) (human); assay: ELISA

binding [1]: binds
binding [2]: binds
binding [3]: binds
binding [4]: binds
binding [5]: binds
B1: human monoclonal antibody mAb sc189 (antibody, human IgG1, kappa, V domains shown)
VH: EVQLVESGGGLVQPGGSLRLSCAASGFSFSSYDMHWVRQATGKGLEWVSGIDIAGDTYYPGSVKGRFTISRENAKNSLYLQMNSLRAGDTAVYYCARGDYDGTFDYWGQGTLVTVSS
VL: DIVMTQTPLSSPVTLGQPASISCRSSQSLVHSDGNTYLSWLQQRPGQPLRLLFYKISNRFSGVPDRFSGSGAGTDFTLIINRVEAEDVGVYYCMHATQFPITFGQGTRLEIKR
